In US20220298237A1 (KEIO UNIVERSITY, published 2022):

B1: BC-E2 (Fab) (Fab, V domains shown)
VH: QEQLKESGGRLVTPGAPLTLTCTVSRFSLSSYAMTWVRQAPGKGLEWIGIINNDGISSTWYASWVKGRFTISKTSTTMDLKMTSLTTEDTATYFCARGGTSGYDIWGPGTLVTVSL
VL: AVVLTQTPSPVSAAVGGTVTINCQSSPSVYKNYLSWYQQKPGQPPKLLIYKASTLASGVPSRFKGSGSGTQFTLTISDVQCDDAATYYCAGGYRGSSDIFAFGGGTEVVVK
B2: BC-H9 (Fab) (Fab, V domains shown)
VH: QSLEESGGRLVTPGTPLTLTCTVSGFSLYTYAMGWVRQAPGKGLEWIGIINNDGISSTWYASWVKGRFTISKTSTTMDLKMTSLTTEDTATYFCARGGTSGYDIWGPGTLVTVSL
VL: AQGLTQTPSPVSAAVGGTVTINCQSGPSVYKNYLSWYQQKAGQPPKLLIYGASTLASGVPSRFKGSGSGTQFTLTISDVQCDDAATYYCAGGYRGSSDIFAFGGGTEVVVK
B3: SC-B6 (Fab) (Fab, V domains shown)
VH: QSVKESGGRLVTPGAPLTLTCTVSGFSLNNYAMTWVRQAPGKGLEWIGIINNDGISSTWYASWVKGRFIISKTSTTVDLKMTSLTTEDTATYFCARGGTSGYDIWGPGTLVTVSL
VL: AQGPTQTPSPVSAAVGGTVTINCQSSPSVYKNYLSWYQQKPGQPPKLLIYGASTLASGVPSRFKGSRSGTQFTLTISDVQCDDAATYYCAGGYIGSRDIFSFGGGTEVVVK
B4: SC-D1 (Fab) (Fab, V domains shown)
VH: QSLEESRGRLVTPGGSLTLTCTVSGFSLSSYAMTWVRQAPGKGLEWIGIINNDGVSSTWYASWVKGRFTISKTSTTMDLKMTSLTTEDTATYFCARGGTSGYDIWGPGTLVTVSL
VL: DPMMTQTPSPVSAAVGGTVTINCQSSPSVYKNYLSWYQQKPGQPPKLLIYGASTLASGVPSRFKGSGSGTQFTLTISGVQCDDAATYYCAGGYRGSSDIFAFGGGTEVVVK
B5: SC-F8 (Fab) (Fab, V domains shown)
VH: QTVKESGGRLVTPGGSLTLTCTVSRFSLSNYAMTWVRQAPGKGLEWIGIINNDGISSTWYASWVKGRFTISKTSTTMDLKMTSLTTEDTATYFCARGGTSGYDIWGPGTLVTVSL
VL: AQVLTQTPSPVSAAVGGTVTINCQSSPSVYKNYLSWYQQKPGQPPKLLIYGASTLASGVPSRFKGSGSGTQFTLTISDVQCDDAATYYCAGGYRGSSDIFAFGGGTEVVVK
B6: BC-F4 (Fab) (Fab, V domains shown)
VH: QSVEESRGRLVTPGGSLTLTCTVSRFSLSNYAMTWVRQAPGKGLEWIGIINNDGISSTWYASWVKGRFTISKTSTTMDLKMTSLTTEDTATYFCARGGTSGYDIWGPGTLVTVSL
VL: AQVLTQTPSPVSAAVGGTVTINCQSSPSVYKNYLSWYQQKPGQPPKLLIYGASTLASGVPSRFKGSGSGTQFTLTISDVQCDDAATYYCAGGYRGSSDIFAFGGGTEVVVK
B7: SC-B2 (Fab) (Fab, V domains shown)
VH: QEQLMESRGRLVTPGGSLTLTCTVSRFSLSNYAMTWVRQAPGKGLEWIGIINNDGISSTWYASWVKGRFTISKTSTTMDLKMTSLTTEDTATYFCARGGTSGYDIWGPGTLVTVSL
VL: AQGPTQTPSPVSAAVGGTVTINCQSSPSVYKNYLSWYQQKPGQPPKLLIYGASTLASGVPSRFKGSGSGTQFTLTISDVQCDDAATYYCAGGYRGSGDIFAFGGGTEVVVK

The binders below were run against AQP3 on AQP3 expressing CHO cells (species not stated) (assay: FACS on AQP3 expressing CHO cells, Fab).

binding, binds:
B1
B2
B3
B4
B5
B6
B7

No constants are given. Whether binding was seen depends on the method and setting. A result given as binding can be weak or reduced; the word gives no strength.
